Experimental data taken from US20250163065A1, “PYRROLOTRIAZINONE COMPOUND, PHARMACEUTICAL COMPOSITION COMPRISING SAME, PREPARATION METHOD THEREFOR, AND USE THEREOF” (SHANGHAITECH UNIVERSITY, priority 2022, published 2025).
At least one structure is not confirmed: it was looked up by name or label, or the drawing left a doubt.

Tested on: BALB/c mice
Assay: Social interaction experiment in BALB/c mice (negative symptoms of schizophrenia)
Assay type: in vivo
Details: 1 mg/kg intraperitoneal
Description: The experimental subjects were 6-week-old male BALB/c wild-type mice, weighing approximately 22 grams, purchased from Shanghai Lingchang Biotechnology Co., Ltd. They were housed in SPF-grade breeding facilities, with 2 mice per cage, under a 12-hour light/dark cycle, with free access to food and water. All behavioral experiments in this project were completed during the light cycle. The experiment adhered to all relevant regulations and guidelines for animal welfare and ethics, and was supervised and inspected by the ethics committee and laboratory animal managers.
The length, width, and height of the behavioral box used in this experiment were all 40 cm. During the experiment, 4 mice were tested in 4 behavioral boxes at the same time. In this experiment, Etho Vision XT was used for experimental setup and video recording.
The mice were 5 weeks old when purchased. […] The two mice were allowed to explore freely for 10 minutes while their activity was monitored and recorded by a camera, and the data was archived.
The experimental data were analyzed. The social interaction time (including approaching, sniffing, grooming, chasing, attacking, etc.) was calculated for each experimental mouse over a 10-minute period, and the total social time of each mouse across different groups was analyzed by one-way analysis of variance.

C[C@H](NC(=O)Cn1nnc2ccccc2c1=O)c1ccc(OC(F)(F)F)cc1 [TAK-041, reference compound]
One-way analysis of variance (social time): No difference
